# These are yes or no findings as the source states them, for the method shown. In cells and extracts the contact can be indirect. Some binding calls cover weakened binding; strength is not graded here. Where a sequence is shown, tags or fusion partners need not be part of it.
# Protein sequences, listed by entry. Tags and fused reporters are not part of them. Lines headed by an entry give the natural chain unless they say otherwise; changes in a name come on top.
# UniProt P40763: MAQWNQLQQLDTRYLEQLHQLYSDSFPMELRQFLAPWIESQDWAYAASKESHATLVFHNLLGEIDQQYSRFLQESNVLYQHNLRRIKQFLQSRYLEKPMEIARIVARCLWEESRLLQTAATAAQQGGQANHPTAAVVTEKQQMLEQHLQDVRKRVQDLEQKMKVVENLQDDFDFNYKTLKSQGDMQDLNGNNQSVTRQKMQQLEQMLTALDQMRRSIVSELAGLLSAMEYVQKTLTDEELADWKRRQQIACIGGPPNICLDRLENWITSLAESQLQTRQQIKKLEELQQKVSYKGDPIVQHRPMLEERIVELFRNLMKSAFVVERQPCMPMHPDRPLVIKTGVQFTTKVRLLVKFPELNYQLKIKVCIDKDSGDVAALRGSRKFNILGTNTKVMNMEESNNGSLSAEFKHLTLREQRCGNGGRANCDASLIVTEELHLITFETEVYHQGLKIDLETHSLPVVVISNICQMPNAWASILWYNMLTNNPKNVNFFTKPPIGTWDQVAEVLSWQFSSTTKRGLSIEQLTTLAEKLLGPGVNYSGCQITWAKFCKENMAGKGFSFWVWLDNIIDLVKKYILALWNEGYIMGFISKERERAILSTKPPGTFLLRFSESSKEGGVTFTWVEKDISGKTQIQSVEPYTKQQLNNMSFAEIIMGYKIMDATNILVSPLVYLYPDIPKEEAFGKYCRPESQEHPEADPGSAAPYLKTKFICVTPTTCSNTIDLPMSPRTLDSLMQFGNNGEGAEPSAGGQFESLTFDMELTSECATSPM
# T1: INPP5F-V5, co-transfected in 293T cells (UniProt Q9Y2H2)
# T1 sequence: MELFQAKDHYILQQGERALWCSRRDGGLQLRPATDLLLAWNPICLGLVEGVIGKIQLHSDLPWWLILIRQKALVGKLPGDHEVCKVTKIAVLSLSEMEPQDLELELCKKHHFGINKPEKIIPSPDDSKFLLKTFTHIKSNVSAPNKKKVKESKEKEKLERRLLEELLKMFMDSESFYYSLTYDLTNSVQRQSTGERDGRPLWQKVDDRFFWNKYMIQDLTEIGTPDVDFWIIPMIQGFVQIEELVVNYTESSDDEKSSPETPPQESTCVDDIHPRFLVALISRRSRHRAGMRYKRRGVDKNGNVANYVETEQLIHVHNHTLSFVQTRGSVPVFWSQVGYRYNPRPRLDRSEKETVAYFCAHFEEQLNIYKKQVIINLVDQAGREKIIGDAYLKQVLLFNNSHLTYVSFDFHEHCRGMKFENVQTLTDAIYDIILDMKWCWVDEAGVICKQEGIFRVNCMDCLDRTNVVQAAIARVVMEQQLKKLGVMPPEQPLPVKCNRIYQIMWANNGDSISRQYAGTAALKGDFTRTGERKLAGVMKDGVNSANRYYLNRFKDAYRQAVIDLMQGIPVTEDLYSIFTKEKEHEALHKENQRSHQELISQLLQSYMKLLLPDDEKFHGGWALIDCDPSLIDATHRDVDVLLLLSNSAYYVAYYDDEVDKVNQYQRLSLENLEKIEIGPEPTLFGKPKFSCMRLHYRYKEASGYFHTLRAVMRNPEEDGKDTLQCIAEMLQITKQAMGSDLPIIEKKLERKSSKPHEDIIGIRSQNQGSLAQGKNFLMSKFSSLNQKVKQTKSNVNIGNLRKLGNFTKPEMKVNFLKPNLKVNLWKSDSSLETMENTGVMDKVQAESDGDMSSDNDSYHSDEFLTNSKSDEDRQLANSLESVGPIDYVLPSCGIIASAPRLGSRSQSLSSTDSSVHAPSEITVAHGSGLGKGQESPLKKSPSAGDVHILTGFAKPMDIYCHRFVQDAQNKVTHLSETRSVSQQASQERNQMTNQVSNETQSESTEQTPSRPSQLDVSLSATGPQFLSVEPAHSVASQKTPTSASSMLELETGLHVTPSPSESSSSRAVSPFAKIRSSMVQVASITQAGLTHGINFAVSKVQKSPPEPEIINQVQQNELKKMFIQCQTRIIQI
# T2: Inositol Polyphosphate-5-Phosphatase F (INPP5F), V5-tagged, overexpressed in glioblastoma cells (UniProt Q9Y2H2)
# T2 sequence: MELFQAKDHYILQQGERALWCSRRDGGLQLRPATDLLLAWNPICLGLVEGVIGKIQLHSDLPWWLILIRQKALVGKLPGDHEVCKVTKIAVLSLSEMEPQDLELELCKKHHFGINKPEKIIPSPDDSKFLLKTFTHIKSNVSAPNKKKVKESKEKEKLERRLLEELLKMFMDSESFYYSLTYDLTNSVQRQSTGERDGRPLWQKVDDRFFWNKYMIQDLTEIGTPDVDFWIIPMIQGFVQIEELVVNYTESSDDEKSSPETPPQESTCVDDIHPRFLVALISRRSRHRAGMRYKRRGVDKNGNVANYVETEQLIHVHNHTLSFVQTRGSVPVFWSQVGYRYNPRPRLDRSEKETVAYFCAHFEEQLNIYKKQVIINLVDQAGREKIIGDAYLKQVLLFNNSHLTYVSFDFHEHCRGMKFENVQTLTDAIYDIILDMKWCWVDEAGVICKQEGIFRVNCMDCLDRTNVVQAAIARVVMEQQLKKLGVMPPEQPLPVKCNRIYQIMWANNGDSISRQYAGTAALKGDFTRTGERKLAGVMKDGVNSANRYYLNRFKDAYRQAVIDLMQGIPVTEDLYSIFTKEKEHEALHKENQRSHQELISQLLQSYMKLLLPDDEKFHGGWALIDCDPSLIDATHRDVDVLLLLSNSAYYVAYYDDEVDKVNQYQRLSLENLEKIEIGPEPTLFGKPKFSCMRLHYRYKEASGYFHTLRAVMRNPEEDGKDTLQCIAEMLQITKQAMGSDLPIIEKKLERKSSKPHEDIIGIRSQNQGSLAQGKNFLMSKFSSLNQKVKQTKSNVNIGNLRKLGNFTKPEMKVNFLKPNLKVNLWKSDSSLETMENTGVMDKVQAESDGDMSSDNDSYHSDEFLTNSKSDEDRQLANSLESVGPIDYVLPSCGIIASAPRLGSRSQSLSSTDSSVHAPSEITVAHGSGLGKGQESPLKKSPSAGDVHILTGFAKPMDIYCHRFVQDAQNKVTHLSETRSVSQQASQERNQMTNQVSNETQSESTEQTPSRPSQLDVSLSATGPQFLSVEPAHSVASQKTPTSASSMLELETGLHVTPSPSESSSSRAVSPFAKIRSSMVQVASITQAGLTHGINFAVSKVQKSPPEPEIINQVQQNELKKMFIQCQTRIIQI
# Experiments:
# [1] = target: T1, INPP5F-V5, co-transfected in 293T cells; assay: co-IP; 293T cells co-transfected with INPP5F-V5 and GFP-tagged STAT3 constructs; IP with anti-V5, immunoblot with anti-GFP; M2 lysis buffer, Dynabeads Protein G
# [2] = target: T2, Inositol Polyphosphate-5-Phosphatase F (INPP5F), V5-tagged, overexpressed in glioblastoma cells; assay: co-IP; IP with anti-V5 (INPP5F-V5) from lysates of INPP5F overexpressing glioblastoma cells, immunoblot for STAT3; M2 lysis buffer (20 mM Tris pH 7, 0.5% NP40, 250 mM NaCl), Dynabeads Protein G
# [3] = target: Signal Transducer and Activator of Transcription 3 (STAT3), endogenous in glioblastoma cells (human (endogenous in glioblastoma cells)) (UniProt P40763); assay: co-IP; IP with anti-STAT3 from the same lysates of INPP5F overexpressing glioblastoma cells, immunoblot for INPP5F; M2 lysis buffer, Dynabeads Protein G
molecule,measurement,setting,value
STAT3-Y705F-GFP (from UniProt P40763 1-770),binding,[1],binds
"Signal Transducer and Activator of Transcription 3 (STAT3), endogenous in glioblastoma cells (from UniProt P40763 1-770)",binding,[2],binds
"Inositol Polyphosphate-5-Phosphatase F (INPP5F), V5-tagged, overexpressed in glioblastoma cells (enzyme, UniProt Q9Y2H2 1-1132) MELFQAKDHYILQQGERALWCSRRDGGLQLRPATDLLLAWNPICLGLVEGVIGKIQLHSDLPWWLILIRQKALVGKLPGDHEVCKVTKIAVLSLSEMEPQDLELELCKKHHFGINKPEKIIPSPDDSKFLLKTFTHIKSNVSAPNKKKVKESKEKEKLERRLLEELLKMFMDSESFYYSLTYDLTNSVQRQSTGERDGRPLWQKVDDRFFWNKYMIQDLTEIGTPDVDFWIIPMIQGFVQIEELVVNYTESSDDEKSSPETPPQESTCVDDIHPRFLVALISRRSRHRAGMRYKRRGVDKNGNVANYVETEQLIHVHNHTLSFVQTRGSVPVFWSQVGYRYNPRPRLDRSEKETVAYFCAHFEEQLNIYKKQVIINLVDQAGREKIIGDAYLKQVLLFNNSHLTYVSFDFHEHCRGMKFENVQTLTDAIYDIILDMKWCWVDEAGVICKQEGIFRVNCMDCLDRTNVVQAAIARVVMEQQLKKLGVMPPEQPLPVKCNRIYQIMWANNGDSISRQYAGTAALKGDFTRTGERKLAGVMKDGVNSANRYYLNRFKDAYRQAVIDLMQGIPVTEDLYSIFTKEKEHEALHKENQRSHQELISQLLQSYMKLLLPDDEKFHGGWALIDCDPSLIDATHRDVDVLLLLSNSAYYVAYYDDEVDKVNQYQRLSLENLEKIEIGPEPTLFGKPKFSCMRLHYRYKEASGYFHTLRAVMRNPEEDGKDTLQCIAEMLQITKQAMGSDLPIIEKKLERKSSKPHEDIIGIRSQNQGSLAQGKNFLMSKFSSLNQKVKQTKSNVNIGNLRKLGNFTKPEMKVNFLKPNLKVNLWKSDSSLETMENTGVMDKVQAESDGDMSSDNDSYHSDEFLTNSKSDEDRQLANSLESVGPIDYVLPSCGIIASAPRLGSRSQSLSSTDSSVHAPSEITVAHGSGLGKGQESPLKKSPSAGDVHILTGFAKPMDIYCHRFVQDAQNKVTHLSETRSVSQQASQERNQMTNQVSNETQSESTEQTPSRPSQLDVSLSATGPQFLSVEPAHSVASQKTPTSASSMLELETGLHVTPSPSESSSSRAVSPFAKIRSSMVQVASITQAGLTHGINFAVSKVQKSPPEPEIINQVQQNELKKMFIQCQTRIIQI",binding,[3],binds
